Test results: publication PMC12589655

Protein sequences, listed by entry. Tags and fused reporters are not part of them. Lines headed by an entry give the natural chain unless they say otherwise; changes in a name come on top. Chains listed by the source or under a name are the forms on record and can include a tag or linker. Residues count along the entry.
UniProt P22363: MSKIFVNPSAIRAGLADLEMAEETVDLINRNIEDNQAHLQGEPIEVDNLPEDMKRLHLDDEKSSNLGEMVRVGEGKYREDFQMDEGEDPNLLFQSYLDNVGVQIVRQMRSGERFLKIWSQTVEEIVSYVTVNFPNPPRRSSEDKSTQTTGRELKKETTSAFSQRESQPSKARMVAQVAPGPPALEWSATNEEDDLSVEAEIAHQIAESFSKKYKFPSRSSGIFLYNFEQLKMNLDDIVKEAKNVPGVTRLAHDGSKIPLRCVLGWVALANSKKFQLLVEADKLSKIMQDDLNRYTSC
GFP-P3 (rabies virus CVS-11 phosphoprotein, truncated isoform P3, residues 53-297, fused to GFP): residues 53-297 of P22363

Experiments:
[1] = molecular target: GFP-P1 (rabies virus CVS-11 phosphoprotein, full-length isoform P1, fused to GFP) (rabies virus, strain CVS-11) (UniProt P22363); assay: affinity purification with mass spectrometry
[2] = molecular target: GFP-P3 (rabies virus CVS-11 phosphoprotein, truncated isoform P3, residues 53-297, fused to GFP) (rabies virus, strain CVS-11) (UniProt P22363); assay: affinity purification with mass spectrometry

Binder | binding [1] | binding [2]
RBM14 (protein, UniProt Q96PK6 1-669) MKIFVGNVDGADTTPEELAALFAPYGTVMSCAVMKQFAFVHMRENAGALRAIEALHGHELRPGRALVVEMSRPRPLNTWKIFVGNVSAACTSQELRSLFERRGRVIECDVVKDYAFVHMEKEADAKAAIAQLNGKEVKGKRINVELSTKGQKKGPGLAVQSGDKTKKPGAGDTAFPGTGGFSATFDYQQAFGNSTGGFDGQARQPTPPFFGRDRSPLRRSPPRASYVAPLTAQPATYRAQPSVSLGAAYRAQPSASLGVGYRTQPMTAQAASYRAQPSVSLGAPYRGQLASPSSQSAAASSLGPYGGAQPSASALSSYGGQAAAASSLNSYGAQGSSLASYGNQPSSYGAQAASSYGVRAAASSYNTQGAASSLGSYGAQAASYGAQSAASSLAYGAQAASYNAQPSASYNAQSAPYAAQQAASYSSQPAAYVAQPATAAAYASQPAAYAAQATTPMAGSYGAQPVVQTQLNSYGAQASMGLSGSYGAQSAAAATGSYGAAAAYGAQPSATLAAPYRTQSSASLAASYAAQQHPQAAASYRGQPGNAYDGAGQPSAAYLSMSQGAVANANSTPPPYERTRLSPPRASYDDPYKKAVAMSKRYGSDRRLAELSDYRRLSESQLSFRRSPTKSSLDYRRLPDAHSDYARYSGSYNDYLRAAQMHSGYQRRM | binds | binds
fibrillarin (FBL) (protein, UniProt P22087 1-321) MKPGFSPRGGGFGGRGGFGDRGGRGGRGGFGGGRGRGGGFRGRGRGGGGGGGGGGGGGRGGGGFHSGGNRGRGRGGKRGNQSGKNVMVEPHRHEGVFICRGKEDALVTKNLVPGESVYGEKRVSISEGDDKIEYRAWNPFRSKLAAAILGGVDQIHIKPGAKVLYLGAASGTTVSHVSDIVGPDGLVYAVEFSHRSGRDLINLAKKRTNIIPVIEDARHPHKYRMLIAMVDVIFADVAQPDQTRIVALNAHTFLRNGGHFVISIKANCIDSTASAEAVFASEVKKMQQENMKPQEQLTLEPYERDHAVVVGVYRPPPKVKN |  | binds

These are yes or no findings as the source states them, for the method shown. In cells and extracts the contact can be indirect. These calls come from enrichment with a bait or labelling near it, and not all partners need be listed.
